From PubChem BioAssay AID504834 (National Center for Advancing Translational Sciences (NCATS), 2011)
The campaign covered roughly 320,000 compounds. About 22,000 (6.9%) were called active. Inconclusive results, whose numbers are uncertain, are shown with a selection of clear calls. The call rests on the fitted dose curve; in most records, active means well fitted inhibition curve with a large enough effect; inconclusive means small, poorly fitted or top-dose-only effect, or another doubt; inactive means no such curve, though single readings can be large or run the other way. Potencies of inconclusive entries are doubtful fits and often do not repeat.

Test: Primary qHTS for delayed death inhibitors of the malarial parasite plastid, 96 hour incubation
Conditions: P. falciparum luciferase reporter growth; series mostly up to 28.7 µM; activity change, negative = inhibition: at the top concentration
Procedure, shortened: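 Luminescence readout: decreased luciferase signal marks inhibited growth of reporter-expressing P. falciparum in infected red cells (2% hematocrit, 0.05% parasitemia final), exposed to compound two generations (96 h, 37 C, 5% CO2).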
On the % scale 0 is the no-effect control and ±100 the full control effect; potency means the concentration at half of the fitted maximal effect.

Row | Compound | Potency | activity change, negative = inhibition
1 | CCOC(=O)c1c(C)n(C)c2ccc(OC(=O)c3ccoc3)cc12 | inconclusive: 4.65 µM [inhibitor, partial curve] | 
2 | Cc1cc(NCc2ccco2)n2c(nc3ccccc32)c1C#N | inconclusive: 0.0738 µM [inhibitor, full curve] | 
3 | COCCCNC(=O)C(C#N)c1nc2ccccc2nc1N1CCCC1 (centres undefined) | active: 7.38 µM | 
4 | O=C(CSc1ccc(Cl)cc1)NCc1ccncc1 | inconclusive: 2.33 µM [inhibitor, full curve, poor fit] | 
5 | N#CCC(=O)Nc1ccc(C(=O)NCC(c2ccco2)N2CCCCC2)cc1 (centres undefined) | inconclusive: 18.5 µM [inhibitor, single point] | 
6 | CCCCn1c(SCC(=O)Nc2cc(C)on2)nc2cc(S(N)(=O)=O)ccc21 | inconclusive: 18.5 µM [inhibitor, single point] | 
7 | COC(=O)c1cc(=O)n2c(-c3ccccc3)csc2n1 | inconclusive: 5.86 µM [inhibitor, partial curve, poor fit] | 
8 | O=C(CSc1nncn1-c1cccnc1)N(c1ccccc1)c1ccccc1 | inconclusive: 14.7 µM [inhibitor, single point] | 
9 | Cc1nn(C(=O)Cn2cc([N+](=O)[O-])cn2)c(C)c1Cl |  | inactive: -23.2%
10 | Cc1cc([N+](=O)[O-])ccc1NCc1ccc2ccccc2c1 |  | inactive: 9.29%
11 | Nc1nc(C(=O)N2CCOCC2)nn1C(=O)c1ccc(Cl)cc1 | active: 10.4 µM | 
12 | Cc1ccc(S(=O)(=O)NN2C(=O)c3ccccc3NC2C)cc1 (centres undefined) | inconclusive: 6.57 µM [inhibitor, partial curve] | 
13 | C[C@@H](NC(=O)[C@@H]1Cc2ccccc2CN1C(=O)OC(C)(C)C)C(=O)NCc1ccco1 | inconclusive: 11.7 µM [inhibitor, partial curve, poor fit] | 
14 | COc1ccc(CCNC(=O)CN2CCN(Cc3ccc(F)cc3)C2=O)cc1OC | inconclusive: 14.7 µM [inhibitor, partial curve, poor fit] | 
15 | O=C(NCC1CCCO1)C1CCC(=O)N1CCc1ccccc1 (centres undefined) | inconclusive: 10.4 µM [inhibitor, single point] | 
16 | COc1ccc(Cl)cc1NC(=O)C(C)N(C)Cc1cccc(Cl)c1Cl (centres undefined) | active: 6.57 µM | 
17 | C/C(=N/NC(=O)c1ccc2c(c1)OCO2)c1cccc([N+](=O)[O-])c1 | inconclusive: 18.5 µM [inhibitor, single point] | 
18 | Cc1ccc(-c2ccc(C(=O)NCCCNC(=O)c3cnccn3)o2)cc1Cl |  | inactive: -0.668%
19 | O=C(/C=C/c1ccco1)N(Cc1ccccc1F)C1CCS(=O)(=O)C1 (centres undefined) | inconclusive: 1.47 µM [inhibitor, full curve] | 

Given as tab-separated lines: part of the list above.
Row	Compound	Potency	activity change, negative = inhibition
4	O=C(CSc1ccc(Cl)cc1)NCc1ccncc1	inconclusive: 2.33 µM [inhibitor, full curve, poor fit]	
7	COC(=O)c1cc(=O)n2c(-c3ccccc3)csc2n1	inconclusive: 5.86 µM [inhibitor, partial curve, poor fit]	
11	Nc1nc(C(=O)N2CCOCC2)nn1C(=O)c1ccc(Cl)cc1	active: 10.4 µM	
14	COc1ccc(CCNC(=O)CN2CCN(Cc3ccc(F)cc3)C2=O)cc1OC	inconclusive: 14.7 µM [inhibitor, partial curve, poor fit]	
19	O=C(/C=C/c1ccco1)N(Cc1ccccc1F)C1CCS(=O)(=O)C1 (centres undefined)	inconclusive: 1.47 µM [inhibitor, full curve]	
